From the supplement of paper PMC12819154, “High-throughput peptide-centric local stability assay extends protein–ligand identification to membrane proteins, tissues and bacteria” (Nature Structural & Molecular Biology, 2025) come the findings set out here.

Amino acid sequences for entries named in this document (tags omitted). A change or cut given only in a name is not applied to a line headed by its entry.
UniProt Q9NRL3: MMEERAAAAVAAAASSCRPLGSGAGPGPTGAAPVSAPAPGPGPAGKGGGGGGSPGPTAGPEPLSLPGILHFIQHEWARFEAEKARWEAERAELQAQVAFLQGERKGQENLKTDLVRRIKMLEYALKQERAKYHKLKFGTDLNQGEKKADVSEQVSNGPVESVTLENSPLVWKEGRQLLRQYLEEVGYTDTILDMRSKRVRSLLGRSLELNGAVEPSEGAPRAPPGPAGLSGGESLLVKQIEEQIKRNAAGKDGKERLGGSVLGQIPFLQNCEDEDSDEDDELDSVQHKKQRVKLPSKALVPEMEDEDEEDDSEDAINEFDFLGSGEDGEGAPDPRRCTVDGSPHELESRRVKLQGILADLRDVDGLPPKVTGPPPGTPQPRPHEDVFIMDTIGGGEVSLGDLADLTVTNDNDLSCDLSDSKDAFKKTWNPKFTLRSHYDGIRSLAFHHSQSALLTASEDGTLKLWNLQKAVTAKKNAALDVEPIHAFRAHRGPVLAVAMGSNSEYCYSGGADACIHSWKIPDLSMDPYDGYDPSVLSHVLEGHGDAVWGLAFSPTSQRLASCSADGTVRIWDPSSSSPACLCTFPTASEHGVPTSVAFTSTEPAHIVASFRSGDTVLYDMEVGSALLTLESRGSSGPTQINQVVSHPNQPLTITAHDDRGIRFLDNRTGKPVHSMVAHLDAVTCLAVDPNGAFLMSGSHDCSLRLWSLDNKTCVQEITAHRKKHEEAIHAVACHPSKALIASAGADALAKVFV
UniProt Q9NSD9: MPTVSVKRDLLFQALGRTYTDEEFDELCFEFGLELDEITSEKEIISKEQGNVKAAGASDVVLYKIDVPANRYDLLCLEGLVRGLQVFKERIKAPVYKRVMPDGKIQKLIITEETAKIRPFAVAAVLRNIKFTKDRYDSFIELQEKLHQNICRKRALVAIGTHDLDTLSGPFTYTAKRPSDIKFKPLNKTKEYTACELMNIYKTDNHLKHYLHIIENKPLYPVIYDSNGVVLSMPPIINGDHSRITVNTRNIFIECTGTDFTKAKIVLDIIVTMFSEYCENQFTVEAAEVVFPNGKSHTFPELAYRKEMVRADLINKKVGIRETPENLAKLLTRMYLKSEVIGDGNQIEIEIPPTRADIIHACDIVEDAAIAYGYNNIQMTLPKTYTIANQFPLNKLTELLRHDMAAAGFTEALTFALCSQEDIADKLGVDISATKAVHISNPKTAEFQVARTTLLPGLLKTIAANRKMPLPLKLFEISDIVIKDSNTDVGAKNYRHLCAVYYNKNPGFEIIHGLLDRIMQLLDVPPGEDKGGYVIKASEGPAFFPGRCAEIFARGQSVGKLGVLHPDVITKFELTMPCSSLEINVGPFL
UniProt Q9NS87: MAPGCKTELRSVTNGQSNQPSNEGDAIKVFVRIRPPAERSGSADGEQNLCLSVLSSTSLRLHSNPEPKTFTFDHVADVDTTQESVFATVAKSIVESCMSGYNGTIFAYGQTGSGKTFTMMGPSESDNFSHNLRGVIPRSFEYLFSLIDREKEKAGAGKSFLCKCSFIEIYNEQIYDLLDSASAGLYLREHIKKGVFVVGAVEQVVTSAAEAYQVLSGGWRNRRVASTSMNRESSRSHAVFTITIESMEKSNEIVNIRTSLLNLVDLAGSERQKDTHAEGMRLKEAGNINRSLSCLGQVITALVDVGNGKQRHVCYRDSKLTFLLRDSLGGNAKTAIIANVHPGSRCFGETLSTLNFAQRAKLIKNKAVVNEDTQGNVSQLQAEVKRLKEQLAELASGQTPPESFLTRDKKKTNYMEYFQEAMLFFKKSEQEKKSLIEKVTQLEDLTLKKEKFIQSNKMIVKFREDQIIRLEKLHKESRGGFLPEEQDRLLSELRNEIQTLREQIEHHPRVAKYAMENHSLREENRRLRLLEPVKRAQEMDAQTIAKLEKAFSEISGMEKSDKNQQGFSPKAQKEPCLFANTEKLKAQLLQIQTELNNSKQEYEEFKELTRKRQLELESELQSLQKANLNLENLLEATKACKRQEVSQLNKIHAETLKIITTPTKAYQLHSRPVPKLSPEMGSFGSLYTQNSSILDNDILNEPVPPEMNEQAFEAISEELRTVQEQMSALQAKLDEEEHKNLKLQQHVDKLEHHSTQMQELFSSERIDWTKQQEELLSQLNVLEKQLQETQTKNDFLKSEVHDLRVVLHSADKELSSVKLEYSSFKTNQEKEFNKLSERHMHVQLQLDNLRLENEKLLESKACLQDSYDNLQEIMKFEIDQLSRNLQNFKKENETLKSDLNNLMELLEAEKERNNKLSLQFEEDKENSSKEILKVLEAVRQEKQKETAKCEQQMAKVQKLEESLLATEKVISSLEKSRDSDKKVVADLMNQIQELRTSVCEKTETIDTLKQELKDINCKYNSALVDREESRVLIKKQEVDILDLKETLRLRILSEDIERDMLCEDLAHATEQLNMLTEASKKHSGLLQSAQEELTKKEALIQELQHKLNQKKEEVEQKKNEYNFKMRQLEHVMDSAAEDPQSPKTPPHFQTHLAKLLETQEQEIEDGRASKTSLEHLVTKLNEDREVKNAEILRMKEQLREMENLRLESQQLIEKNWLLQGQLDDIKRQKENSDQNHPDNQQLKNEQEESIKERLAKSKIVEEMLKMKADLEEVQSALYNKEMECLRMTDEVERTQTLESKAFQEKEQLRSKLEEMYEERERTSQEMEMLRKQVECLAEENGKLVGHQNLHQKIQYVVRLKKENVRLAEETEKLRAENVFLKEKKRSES
UniProt Q9NXU5: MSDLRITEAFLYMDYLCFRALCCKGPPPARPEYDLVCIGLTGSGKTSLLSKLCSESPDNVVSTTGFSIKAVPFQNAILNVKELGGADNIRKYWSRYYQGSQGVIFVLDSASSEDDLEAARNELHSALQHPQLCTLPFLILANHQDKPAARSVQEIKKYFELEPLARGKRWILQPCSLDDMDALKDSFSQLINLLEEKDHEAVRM
UniProt Q9NQX3: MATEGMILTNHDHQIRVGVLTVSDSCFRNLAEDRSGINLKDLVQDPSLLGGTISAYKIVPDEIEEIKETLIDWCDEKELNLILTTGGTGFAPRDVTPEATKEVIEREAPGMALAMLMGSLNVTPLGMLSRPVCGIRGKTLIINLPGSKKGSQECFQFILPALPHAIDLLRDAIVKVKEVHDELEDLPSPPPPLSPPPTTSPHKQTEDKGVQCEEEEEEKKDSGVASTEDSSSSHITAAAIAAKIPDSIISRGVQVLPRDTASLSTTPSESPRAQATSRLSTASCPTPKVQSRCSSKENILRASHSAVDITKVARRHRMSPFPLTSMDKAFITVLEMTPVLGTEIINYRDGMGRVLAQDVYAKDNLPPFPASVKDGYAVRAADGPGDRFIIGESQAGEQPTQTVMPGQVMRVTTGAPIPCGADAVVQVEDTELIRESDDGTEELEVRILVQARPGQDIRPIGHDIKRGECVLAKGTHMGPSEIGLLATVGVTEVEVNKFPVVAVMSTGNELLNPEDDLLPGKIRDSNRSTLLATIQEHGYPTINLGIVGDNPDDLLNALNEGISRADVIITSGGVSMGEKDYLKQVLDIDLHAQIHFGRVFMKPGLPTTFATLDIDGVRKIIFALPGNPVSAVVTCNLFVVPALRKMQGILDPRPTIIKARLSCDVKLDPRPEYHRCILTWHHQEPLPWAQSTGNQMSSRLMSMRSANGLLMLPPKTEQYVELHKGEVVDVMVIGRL
UniProt Q9NSQ0: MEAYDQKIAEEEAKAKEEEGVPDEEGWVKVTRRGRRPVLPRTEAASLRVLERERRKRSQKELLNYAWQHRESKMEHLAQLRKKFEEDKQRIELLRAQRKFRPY
UniProt Q9NVX2: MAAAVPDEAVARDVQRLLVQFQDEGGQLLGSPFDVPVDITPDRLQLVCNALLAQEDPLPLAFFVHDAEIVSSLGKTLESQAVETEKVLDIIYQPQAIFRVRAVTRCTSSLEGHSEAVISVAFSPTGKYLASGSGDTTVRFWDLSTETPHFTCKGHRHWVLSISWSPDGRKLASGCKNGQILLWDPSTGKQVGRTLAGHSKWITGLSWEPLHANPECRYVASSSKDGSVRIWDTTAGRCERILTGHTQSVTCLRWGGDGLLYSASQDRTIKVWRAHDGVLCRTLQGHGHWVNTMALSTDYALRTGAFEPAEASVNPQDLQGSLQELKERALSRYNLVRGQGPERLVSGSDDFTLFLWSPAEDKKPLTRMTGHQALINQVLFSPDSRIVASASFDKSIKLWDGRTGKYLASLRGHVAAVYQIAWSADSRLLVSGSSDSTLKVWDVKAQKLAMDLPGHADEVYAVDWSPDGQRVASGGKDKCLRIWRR
UniProt Q9NQT5, whole entry: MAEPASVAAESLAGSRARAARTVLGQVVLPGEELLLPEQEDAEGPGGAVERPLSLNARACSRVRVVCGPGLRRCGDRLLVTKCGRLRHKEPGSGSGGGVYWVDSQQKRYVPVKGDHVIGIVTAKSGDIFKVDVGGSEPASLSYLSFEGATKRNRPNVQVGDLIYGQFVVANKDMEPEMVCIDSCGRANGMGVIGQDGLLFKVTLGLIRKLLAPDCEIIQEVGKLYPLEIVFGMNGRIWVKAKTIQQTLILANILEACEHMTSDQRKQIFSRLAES
UniProt Q9NVP1: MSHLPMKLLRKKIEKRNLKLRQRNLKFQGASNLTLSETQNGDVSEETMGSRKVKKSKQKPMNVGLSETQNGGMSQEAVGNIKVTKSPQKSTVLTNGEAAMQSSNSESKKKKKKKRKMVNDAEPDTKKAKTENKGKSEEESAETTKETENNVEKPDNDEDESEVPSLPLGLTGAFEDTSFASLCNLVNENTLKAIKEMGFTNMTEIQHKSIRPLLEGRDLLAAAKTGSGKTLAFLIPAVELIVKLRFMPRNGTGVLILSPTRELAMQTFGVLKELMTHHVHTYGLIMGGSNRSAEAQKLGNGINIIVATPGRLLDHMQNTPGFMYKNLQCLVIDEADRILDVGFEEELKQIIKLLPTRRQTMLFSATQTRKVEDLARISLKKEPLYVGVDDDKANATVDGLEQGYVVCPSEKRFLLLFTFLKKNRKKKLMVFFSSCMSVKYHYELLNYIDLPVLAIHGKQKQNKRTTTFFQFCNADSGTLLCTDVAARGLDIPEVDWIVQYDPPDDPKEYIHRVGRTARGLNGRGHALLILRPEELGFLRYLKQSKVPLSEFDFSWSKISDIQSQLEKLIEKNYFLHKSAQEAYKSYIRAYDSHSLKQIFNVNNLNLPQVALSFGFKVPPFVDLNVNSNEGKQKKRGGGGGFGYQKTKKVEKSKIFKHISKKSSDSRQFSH
UniProt Q9NRW7: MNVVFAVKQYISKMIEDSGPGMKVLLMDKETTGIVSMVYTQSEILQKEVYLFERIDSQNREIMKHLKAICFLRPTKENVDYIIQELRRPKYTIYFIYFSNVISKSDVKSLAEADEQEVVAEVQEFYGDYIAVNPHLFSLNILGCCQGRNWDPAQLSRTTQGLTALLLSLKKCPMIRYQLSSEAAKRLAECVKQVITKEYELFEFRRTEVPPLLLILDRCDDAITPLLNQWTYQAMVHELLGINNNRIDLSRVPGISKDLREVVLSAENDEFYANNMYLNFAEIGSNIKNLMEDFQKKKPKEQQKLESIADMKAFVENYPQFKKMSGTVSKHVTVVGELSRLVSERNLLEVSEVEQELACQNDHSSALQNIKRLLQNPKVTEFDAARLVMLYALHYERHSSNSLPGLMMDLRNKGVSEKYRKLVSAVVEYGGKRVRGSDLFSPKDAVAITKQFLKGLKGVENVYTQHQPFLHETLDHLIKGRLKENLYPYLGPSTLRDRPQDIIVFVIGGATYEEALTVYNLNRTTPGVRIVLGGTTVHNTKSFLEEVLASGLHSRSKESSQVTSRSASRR
UniProt Q9NX07: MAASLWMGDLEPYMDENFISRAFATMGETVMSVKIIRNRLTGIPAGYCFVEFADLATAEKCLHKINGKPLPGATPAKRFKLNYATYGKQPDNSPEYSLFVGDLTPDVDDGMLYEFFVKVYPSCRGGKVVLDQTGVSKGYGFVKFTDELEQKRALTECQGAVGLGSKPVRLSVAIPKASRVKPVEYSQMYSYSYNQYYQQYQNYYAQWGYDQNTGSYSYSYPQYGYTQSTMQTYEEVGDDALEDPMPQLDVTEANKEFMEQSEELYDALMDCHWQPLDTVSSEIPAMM
UniProt Q9NQP4, whole entry: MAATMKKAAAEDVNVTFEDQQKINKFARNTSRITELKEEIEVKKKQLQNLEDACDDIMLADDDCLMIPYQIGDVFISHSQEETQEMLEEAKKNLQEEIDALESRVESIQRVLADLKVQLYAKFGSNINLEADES

The other results are listed elsewhere or left out. Most entries show no effect beyond the scatter of the controls.

Compound in this experiment: CN[C@@H]1C[C@H]2O[C@@](C)([C@@H]1OC)n1c3ccccc3c3c4c(c5c6ccccc6n2c5c31)C(=O)NC4 [staurosporine]
The experiment can be described thus: log2 fold change of tryptic peptide abundance, ligand vs vehicle (limited proteolysis) (log2 ratio); higher = more trypsin-susceptible (destabilized). Particulars: ligand concentration: 20 uM; sample: K562 cleared lysate; digestion: 4 min, 22 C (HT-PELSA RT4min, Orbitrap Astral).
For “UniProt Q9NT68 (peptide sequence: KPSKYCSWK, peptide start residue: 366)”, the log2 fold change worked out at 0.0689. In the case of “ATAD3A (peptide sequence: SWLFGINKGPK, peptide start residue: 2) (UniProt Q9NVI7)”, the log2 fold change is -0.147. With “STRN4 (peptide sequence: KNAALDVEPIHAFR, peptide start residue: 475) (UniProt Q9NRL3)” the figure was -0.302. “UniProt Q9NYW8 (peptide sequence: SQMEMKPFECSECGK, peptide start residue: 254)”: the log2 fold change is 0.723. The result for “MRPL39 (peptide sequence: DAHALIYK, peptide start residue: 205) (UniProt Q9NYK5)” reads -0.396; that for “FARSB (peptide sequence: IKAPVYKR, peptide start residue: 91) (UniProt Q9NSD9)”, 0.714. For “AASDHPPT (peptide sequence: AIGVGLGFELQR, peptide start residue: 186) (UniProt Q9NRN7)”, the log2 fold change is -0.252.

Take “UniProt Q9NXR5 (peptide sequence: AGATLNVSTTR, peptide start residue: 80)”: the log2 fold change stood at 0.16. With “KIF15 (peptide sequence: TAIIANVHPGSR, peptide start residue: 334) (UniProt Q9NS87)” the figure was 0.221. The result for “FBXO6 (peptide sequence: NQASSEAQPGQK, peptide start residue: 264) (UniProt Q9NRD1)” reads 0.789; that for “ARL15 (peptide sequence: AVPFQNAILNVK, peptide start residue: 70) (UniProt Q9NXU5)”, -0.0948. As to “GPHN (peptide sequence: IPDSIISR, peptide start residue: 244) (UniProt Q9NQX3)”, the log2 fold change is -0.13.

As for “UniProt Q9NSQ0 (peptide sequence: KKFEEDK, peptide start residue: 259)”, the log2 fold change worked out at 0.193.

Take “NLE1 (peptide sequence: TLESQAVETEK, peptide start residue: 76) (UniProt Q9NVX2)”: the log2 fold change came out at 0.257. The result for “AATF (peptide sequence: VSEEVEKGR, peptide start residue: 217) (UniProt Q9NY61)” reads -0.936; that for “LYAR (peptide sequence: HSEVETDSKK, peptide start residue: 275) (UniProt Q9NX58)”, 0.356; that for “EXOSC3 (peptide sequence: HKEPGSGSGGGVYWVDSQQK, peptide start residue: 88) (UniProt Q9NQT5)”, -0.474. With “DUSP22 (peptide sequence: SCANPNVGFQR, peptide start residue: 123) (UniProt Q9NRW4)” the figure was -0.137; with “ABCF3 (peptide sequence: EYEAQQQYR, peptide start residue: 426) (UniProt Q9NUQ8)”, -0.189. The result for “DDX18 (peptide sequence: QKPMNVGLSETQNGGMSQEAVGNIK, peptide start residue: 58) (UniProt Q9NVP1)” reads -1.04; that for “VPS45 (peptide sequence: LVMLYALHYER, peptide start residue: 387) (UniProt Q9NRW7)”, 0.432. On to “TRNAU1AP (peptide sequence: INGKPLPGATPAKR, peptide start residue: 65) (UniProt Q9NX07)”, for which the log2 fold change was -0.466. Turning to “DNAJB12 (peptide sequence: YFGDTDMYHR, peptide start residue: 345) (UniProt Q9NXW2)”, the log2 fold change is 0.798.

In the case of “UniProt Q9NYJ8 (peptide sequence: NMSGQVSMGPAFIHHHPPK, peptide start residue: 421)”, the log2 fold change came out at 0.202. The result for “SLTM (peptide sequence: SSASGYGSR, peptide start residue: 922) (UniProt Q9NWH9)” reads -0.441.

For “DIABLO (peptide sequence: AESEQEAYLRED, peptide start residue: 228) (UniProt Q9NR28)”, the log2 fold change was -0.434. For the target “PFDN4 (peptide sequence: ITELKEEIEVK, peptide start residue: 33) (UniProt Q9NQP4)”, the log2 fold change was -0.25. The result for “INTS9 (peptide sequence: KRVSDDVPDCK, peptide start residue: 569) (UniProt Q9NV88)” reads -0.258.
